{"source": "patent US9446087B2", "about": "“Anti-resorptive and bone building dietary supplements and methods of use” (priority 2006, dated 2016)", "tested_on": "ovariectomized (OVX) rat model", "assay": "In vivo ovariectomized (OVX) rat study - DEXA measurements", "conditions": "OVX rats, 35 days, positive control 0.5 mg/day; vs placebo group", "experimental": "Two different formulas were tested in an in vivo study involving female, […] rats, aged approximately 12-14 weeks, with approximate body weights between 200-250 grams. Formula 2 included varying dosages of pomegranate extract and grape seed extract and a fixed dosage of ipriflavone as reported in Table 18. Three dosages were tested for each formula. The study utilized 8 groups of rats, with 15 rats in each group and lasted approximately 35 days.\nTable 18 below indicates the formula given to each of the 8 test groups. The dosages in Table 18 are based on the recommended human dosages and were converted to the appropriate corresponding rat dose using the FDA conversion formula: Human equivalent dose (HED, mg/kg)=rat dose in mg/kg×(rat weight in kg/human weight in kg)^0.33 HED=rat NOAEL×(W-rat/W-human)^(1-b), b=0.67. […]\nThe effectiveness of the formulas on antiresorption was assessed by outcome measurements that included DEXA scan (to determine bone mineral density), biomechanical measurement (to gather bone strength and functional information), micro-CT measurement (to assess virtual bone quality and functional information), and histomorphology measurement (to assess bone quality and functional information). […] These measurements were determined after 35 days of treatment.", "note": "Marks after values point to notes of the source that are not given here."}
{"compound": "NCCCC(O)(P(=O)(O)O)P(=O)(O)O", "note": "[Alendronate]", "values": [{"measurement": "Bone Mineral Density (DEXA)", "value": 35, "unit": "%^a"}]}
